No constants are given. Whether binding was seen depends on the method and setting. Some entries that bind do so weakly or less than the wild type. Where a sequence is shown, tags or fusion partners need not be part of it.
Target: T1, Dbf4, Gal4 DNA binding domain fusion (GAL4-BD-DBF4) (budding yeast) (UniProt P32325)
T1 sequence: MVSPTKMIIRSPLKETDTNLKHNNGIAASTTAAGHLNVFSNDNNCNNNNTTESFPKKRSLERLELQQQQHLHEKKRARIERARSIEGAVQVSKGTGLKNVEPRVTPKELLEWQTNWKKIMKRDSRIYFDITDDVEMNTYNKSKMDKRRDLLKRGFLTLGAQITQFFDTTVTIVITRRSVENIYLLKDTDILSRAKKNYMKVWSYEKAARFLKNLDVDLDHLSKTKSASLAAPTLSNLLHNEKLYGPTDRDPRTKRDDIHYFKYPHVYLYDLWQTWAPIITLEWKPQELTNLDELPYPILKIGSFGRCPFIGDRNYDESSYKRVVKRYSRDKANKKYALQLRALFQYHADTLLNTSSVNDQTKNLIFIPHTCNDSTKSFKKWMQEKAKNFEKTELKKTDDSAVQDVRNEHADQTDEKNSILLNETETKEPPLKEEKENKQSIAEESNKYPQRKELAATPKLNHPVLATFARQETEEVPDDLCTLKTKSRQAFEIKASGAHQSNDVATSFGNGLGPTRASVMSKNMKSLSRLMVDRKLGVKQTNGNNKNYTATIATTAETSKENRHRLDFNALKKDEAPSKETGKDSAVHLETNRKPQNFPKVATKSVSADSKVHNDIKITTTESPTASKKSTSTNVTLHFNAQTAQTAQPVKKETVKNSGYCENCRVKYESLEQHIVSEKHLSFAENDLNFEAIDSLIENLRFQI
Assay: two-hybrid; Gal4 DNA binding domain (BD) and Gal4 activation domain (AD) fusions; yeast grown at 30°C on SC-W-L or SC-W-L-H plates

Chains of the proteins cited; added tags and fusions are not shown. Residues count along the entry.
UniProt P29469, residues 1-299: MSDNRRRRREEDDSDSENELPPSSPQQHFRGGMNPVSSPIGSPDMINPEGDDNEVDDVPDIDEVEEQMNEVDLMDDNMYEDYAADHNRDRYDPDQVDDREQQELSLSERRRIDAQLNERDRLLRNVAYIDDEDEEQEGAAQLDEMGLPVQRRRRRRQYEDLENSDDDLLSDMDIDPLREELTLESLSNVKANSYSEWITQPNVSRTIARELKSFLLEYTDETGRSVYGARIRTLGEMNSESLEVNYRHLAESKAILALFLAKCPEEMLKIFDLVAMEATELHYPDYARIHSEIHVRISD

## Mcm2 (1-299), Gal4 activation domain fusion (GAL4-AD-mcm2(1-299)) (from UniProt P29469 1-299) (domain or fragment)
  binding: binds

Reference: PMC4901202, “Sld3-MCM Interaction Facilitated by Dbf4-Dependent Kinase Defines an Essential Step in Eukaryotic DNA Replication Initiation” (Frontiers in Microbiology, 2016)
